The other results are listed elsewhere or left out.

Protein sequences, listed by entry. Tags and fused reporters are not part of them. Lines headed by an entry give the natural chain unless they say otherwise; changes in a name come on top.
UniProt Q969N2: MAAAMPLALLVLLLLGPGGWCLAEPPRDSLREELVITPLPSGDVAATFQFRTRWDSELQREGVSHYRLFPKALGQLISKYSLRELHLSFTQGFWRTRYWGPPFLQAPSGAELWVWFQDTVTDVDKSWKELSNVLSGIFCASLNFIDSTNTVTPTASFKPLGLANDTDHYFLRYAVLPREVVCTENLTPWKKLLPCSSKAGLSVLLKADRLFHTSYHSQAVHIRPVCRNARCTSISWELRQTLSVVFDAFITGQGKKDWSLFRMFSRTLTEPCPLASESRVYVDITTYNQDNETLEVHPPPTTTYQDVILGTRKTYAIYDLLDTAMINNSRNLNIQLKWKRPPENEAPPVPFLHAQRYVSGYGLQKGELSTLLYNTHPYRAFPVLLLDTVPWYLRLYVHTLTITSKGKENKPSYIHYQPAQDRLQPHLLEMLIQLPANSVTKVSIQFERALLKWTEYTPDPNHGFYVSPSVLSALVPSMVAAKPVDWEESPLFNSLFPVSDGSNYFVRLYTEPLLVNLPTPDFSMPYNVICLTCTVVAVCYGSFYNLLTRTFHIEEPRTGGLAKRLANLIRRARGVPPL
UniProt Q8IV08: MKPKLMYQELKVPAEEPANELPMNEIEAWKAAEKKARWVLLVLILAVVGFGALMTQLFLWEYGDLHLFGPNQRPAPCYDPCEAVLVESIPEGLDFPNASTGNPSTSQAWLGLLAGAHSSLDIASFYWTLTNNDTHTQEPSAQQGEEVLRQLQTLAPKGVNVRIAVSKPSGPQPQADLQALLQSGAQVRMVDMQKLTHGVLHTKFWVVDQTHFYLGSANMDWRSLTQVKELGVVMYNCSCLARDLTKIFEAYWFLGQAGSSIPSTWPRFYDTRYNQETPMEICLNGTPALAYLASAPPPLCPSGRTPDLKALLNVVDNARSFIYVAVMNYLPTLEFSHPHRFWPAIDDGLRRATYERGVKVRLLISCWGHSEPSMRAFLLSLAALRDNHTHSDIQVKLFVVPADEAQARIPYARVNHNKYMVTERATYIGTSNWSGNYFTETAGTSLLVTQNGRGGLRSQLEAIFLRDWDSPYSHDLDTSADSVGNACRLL
UniProt Q9HBI1: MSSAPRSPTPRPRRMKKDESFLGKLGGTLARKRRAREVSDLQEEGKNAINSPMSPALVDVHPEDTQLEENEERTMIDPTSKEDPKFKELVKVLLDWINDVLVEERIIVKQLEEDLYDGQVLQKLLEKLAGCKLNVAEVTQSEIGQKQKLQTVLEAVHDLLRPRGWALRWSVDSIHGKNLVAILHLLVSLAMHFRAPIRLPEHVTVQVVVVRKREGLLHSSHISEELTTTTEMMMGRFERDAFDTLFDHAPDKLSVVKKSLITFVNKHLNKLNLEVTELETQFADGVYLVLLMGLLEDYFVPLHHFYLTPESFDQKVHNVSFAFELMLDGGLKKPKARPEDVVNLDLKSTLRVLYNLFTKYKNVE
UniProt Q13177, whole entry: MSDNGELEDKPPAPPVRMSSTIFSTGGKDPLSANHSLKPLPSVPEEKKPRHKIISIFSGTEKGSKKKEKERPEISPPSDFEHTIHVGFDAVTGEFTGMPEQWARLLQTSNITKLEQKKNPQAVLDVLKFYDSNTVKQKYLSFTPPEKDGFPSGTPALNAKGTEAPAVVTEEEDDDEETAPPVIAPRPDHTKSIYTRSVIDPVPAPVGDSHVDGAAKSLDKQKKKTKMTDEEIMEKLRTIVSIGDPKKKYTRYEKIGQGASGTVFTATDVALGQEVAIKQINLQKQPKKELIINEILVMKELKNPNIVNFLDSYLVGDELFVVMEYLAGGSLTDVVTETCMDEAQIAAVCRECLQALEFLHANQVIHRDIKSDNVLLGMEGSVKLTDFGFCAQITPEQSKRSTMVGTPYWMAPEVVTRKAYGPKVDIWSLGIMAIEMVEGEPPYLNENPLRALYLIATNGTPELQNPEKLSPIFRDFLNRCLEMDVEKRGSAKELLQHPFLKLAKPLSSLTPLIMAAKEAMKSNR
UniProt Q9HBI0: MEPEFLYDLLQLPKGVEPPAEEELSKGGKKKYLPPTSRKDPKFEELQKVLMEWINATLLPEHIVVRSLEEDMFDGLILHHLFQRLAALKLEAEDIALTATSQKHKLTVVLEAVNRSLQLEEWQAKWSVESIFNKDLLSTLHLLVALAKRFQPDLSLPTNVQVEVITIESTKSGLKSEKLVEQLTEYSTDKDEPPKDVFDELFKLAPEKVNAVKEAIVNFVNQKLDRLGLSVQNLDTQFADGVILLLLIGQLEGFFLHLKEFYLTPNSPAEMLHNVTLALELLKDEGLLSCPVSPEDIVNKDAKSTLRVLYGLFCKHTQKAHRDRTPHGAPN
UniProt P47712: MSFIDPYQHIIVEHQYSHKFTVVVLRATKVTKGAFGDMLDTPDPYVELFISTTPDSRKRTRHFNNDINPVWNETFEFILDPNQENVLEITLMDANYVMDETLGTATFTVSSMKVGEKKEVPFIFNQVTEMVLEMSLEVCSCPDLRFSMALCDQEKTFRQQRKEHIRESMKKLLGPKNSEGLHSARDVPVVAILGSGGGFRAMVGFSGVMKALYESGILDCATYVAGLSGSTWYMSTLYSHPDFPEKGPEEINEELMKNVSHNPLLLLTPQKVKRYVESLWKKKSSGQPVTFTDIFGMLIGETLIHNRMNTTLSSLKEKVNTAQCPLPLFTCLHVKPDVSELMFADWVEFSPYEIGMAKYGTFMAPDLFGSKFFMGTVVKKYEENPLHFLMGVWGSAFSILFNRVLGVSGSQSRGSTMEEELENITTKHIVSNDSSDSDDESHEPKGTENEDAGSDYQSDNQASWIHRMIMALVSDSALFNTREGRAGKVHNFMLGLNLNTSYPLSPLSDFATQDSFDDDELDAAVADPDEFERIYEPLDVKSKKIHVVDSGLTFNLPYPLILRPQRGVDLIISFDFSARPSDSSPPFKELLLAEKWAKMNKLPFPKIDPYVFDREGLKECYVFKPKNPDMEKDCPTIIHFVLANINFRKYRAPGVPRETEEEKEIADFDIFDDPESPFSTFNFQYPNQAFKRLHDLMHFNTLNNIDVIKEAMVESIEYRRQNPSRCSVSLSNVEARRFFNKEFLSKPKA
UniProt Q96KB5: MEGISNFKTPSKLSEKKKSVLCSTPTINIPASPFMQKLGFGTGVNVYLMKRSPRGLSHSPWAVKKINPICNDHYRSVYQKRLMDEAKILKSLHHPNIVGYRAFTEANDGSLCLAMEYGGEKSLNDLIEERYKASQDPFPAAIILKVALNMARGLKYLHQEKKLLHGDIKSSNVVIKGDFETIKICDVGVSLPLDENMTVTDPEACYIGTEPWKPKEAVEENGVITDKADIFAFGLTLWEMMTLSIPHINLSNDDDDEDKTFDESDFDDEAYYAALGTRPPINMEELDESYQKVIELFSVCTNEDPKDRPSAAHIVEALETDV
UniProt O94921: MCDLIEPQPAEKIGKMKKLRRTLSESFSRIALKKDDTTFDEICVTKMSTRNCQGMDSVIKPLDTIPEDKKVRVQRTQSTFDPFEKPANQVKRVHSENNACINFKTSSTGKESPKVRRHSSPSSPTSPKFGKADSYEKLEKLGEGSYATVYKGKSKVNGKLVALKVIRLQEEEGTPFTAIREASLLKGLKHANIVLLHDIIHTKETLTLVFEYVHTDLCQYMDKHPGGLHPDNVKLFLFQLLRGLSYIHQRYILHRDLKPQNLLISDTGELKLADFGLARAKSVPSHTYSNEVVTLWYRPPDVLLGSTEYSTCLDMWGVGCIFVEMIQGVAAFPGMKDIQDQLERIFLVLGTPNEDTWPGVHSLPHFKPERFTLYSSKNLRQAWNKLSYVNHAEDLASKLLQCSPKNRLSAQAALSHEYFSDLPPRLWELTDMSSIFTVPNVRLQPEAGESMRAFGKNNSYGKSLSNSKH
UniProt Q58A45: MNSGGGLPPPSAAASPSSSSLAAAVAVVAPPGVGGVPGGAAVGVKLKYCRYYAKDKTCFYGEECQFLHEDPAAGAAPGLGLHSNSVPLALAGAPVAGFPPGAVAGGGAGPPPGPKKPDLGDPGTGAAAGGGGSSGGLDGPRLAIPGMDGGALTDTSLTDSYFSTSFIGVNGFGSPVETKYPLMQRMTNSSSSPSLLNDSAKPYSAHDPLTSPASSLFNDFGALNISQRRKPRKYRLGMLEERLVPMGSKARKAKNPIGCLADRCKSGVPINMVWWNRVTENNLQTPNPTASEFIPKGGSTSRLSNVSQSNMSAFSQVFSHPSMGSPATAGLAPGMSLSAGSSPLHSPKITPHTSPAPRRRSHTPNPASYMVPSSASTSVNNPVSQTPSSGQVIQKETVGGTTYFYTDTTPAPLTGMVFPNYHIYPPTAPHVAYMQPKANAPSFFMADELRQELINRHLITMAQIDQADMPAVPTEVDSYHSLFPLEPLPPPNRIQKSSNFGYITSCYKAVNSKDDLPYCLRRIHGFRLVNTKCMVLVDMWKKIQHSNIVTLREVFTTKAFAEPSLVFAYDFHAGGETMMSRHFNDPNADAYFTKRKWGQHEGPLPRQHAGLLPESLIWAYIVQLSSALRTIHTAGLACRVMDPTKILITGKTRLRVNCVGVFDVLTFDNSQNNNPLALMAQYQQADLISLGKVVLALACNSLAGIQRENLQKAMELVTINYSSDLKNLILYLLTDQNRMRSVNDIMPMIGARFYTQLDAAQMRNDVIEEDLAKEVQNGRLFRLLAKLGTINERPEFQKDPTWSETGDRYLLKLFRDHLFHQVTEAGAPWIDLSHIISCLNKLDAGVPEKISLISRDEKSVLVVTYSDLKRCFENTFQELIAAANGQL
UniProt P07205: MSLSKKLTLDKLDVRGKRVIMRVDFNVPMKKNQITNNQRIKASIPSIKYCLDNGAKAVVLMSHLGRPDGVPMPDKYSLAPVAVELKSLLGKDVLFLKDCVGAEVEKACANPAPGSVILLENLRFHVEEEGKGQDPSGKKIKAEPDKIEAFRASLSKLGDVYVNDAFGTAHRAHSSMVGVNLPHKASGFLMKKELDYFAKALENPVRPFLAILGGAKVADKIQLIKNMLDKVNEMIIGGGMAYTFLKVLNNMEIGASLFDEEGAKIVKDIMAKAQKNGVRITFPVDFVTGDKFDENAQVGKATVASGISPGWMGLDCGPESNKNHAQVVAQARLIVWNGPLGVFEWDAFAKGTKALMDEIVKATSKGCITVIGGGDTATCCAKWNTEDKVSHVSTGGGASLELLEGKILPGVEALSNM
UniProt Q93100: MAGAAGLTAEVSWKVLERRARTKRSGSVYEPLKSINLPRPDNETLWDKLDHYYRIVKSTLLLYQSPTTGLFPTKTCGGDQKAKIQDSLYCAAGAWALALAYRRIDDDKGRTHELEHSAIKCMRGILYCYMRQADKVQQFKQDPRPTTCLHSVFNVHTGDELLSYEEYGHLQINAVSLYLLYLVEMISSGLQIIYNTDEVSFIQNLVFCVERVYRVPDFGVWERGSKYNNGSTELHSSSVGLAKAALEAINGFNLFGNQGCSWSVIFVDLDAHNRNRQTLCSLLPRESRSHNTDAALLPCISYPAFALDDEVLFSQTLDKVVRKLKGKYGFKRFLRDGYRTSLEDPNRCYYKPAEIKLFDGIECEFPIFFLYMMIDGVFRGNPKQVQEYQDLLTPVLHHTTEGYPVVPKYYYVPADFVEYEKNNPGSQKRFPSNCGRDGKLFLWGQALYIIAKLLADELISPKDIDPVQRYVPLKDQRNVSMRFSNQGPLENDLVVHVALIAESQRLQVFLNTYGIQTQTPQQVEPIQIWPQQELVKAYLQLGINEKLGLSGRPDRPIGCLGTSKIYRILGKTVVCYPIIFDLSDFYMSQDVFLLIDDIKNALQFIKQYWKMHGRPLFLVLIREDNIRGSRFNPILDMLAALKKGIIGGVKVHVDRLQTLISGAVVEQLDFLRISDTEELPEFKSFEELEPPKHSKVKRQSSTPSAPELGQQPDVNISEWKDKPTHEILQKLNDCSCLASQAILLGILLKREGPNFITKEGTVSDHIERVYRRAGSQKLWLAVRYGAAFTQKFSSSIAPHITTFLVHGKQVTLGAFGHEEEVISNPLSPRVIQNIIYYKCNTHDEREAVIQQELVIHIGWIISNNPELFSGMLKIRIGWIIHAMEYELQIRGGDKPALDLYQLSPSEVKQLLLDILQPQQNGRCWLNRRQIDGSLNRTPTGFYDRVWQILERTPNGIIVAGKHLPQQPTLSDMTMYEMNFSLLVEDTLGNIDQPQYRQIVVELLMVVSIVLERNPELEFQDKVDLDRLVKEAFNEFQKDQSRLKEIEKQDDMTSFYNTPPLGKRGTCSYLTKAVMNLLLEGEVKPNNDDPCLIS
UniProt O00625: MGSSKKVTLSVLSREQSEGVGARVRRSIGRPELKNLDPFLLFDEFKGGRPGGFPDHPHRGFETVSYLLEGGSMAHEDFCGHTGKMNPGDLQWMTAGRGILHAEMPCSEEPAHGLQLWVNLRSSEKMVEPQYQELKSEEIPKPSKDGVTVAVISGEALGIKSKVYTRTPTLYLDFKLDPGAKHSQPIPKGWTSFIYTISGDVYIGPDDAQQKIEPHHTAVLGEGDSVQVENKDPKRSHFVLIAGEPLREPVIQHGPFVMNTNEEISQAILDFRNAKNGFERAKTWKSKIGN

Compound in the test: COc1ccc(Cn2ccc3cc(C)c(C(=O)NO)cc32)cc1
As to the kind of experiment: dose-dependent thermal stabilisation call (2D-TPP, DLPTP, 10% FDR) (binary (1 = stabilised)); higher = stabilised by the compound. The conditions noted are these: system: HL-60 intact cells; concentration range 0.04-10 µM. The protocol: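 2D thermal proteome profiling in intact HL-60 cells treated with BRD-3811 (0, 0.04, 0.29, 2, 10 uM) for 90 min at 37 C, then heated 3 min at one of 12 temperatures (42-63.9 C). Soluble protein was quantified by TMT10 MS. The value is the DLPTP call of the paper: dose-dependent thermal stabilisation over all temperatures at 10% FDR (F-test of a dose-response against a flat model); one experiment, one call per tested protein.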
P2RX7 (UniProt Q99572): the “dose-dependent thermal stabilisation call” value was inactive: 0.
For the target PDIA3 (UniProt P30101), the “dose-dependent thermal stabilisation call” value was inactive: 0.
In the case of PLEC1 (UniProt Q15149), the “dose-dependent thermal stabilisation call” value was inactive: 0.
Consider PIP5K3 (UniProt Q9Y2I7), for which the “dose-dependent thermal stabilisation call” value is inactive: 0.
The value for PDSS2 (UniProt Q86YH6) was inactive: 0; that for PIGT (UniProt Q969N2) was inactive: 0.
As to PATZ1 (UniProt Q9HBE1), the “dose-dependent thermal stabilisation call” value was inactive: 0.
In the case of PLD3 (UniProt Q8IV08), the “dose-dependent thermal stabilisation call” value is inactive: 0.
In the case of PARN (UniProt O95453), the “dose-dependent thermal stabilisation call” value was inactive: 0.
The value for P4HTM (UniProt Q9NXG6) was inactive: 0; that for PARVB (UniProt Q9HBI1) was inactive: 0.
Turning to PKN1 (UniProt Q16512), the “dose-dependent thermal stabilisation call” value is inactive: 0.
For PAK2 (UniProt Q13177) the value was inactive: 0; for PARVG (UniProt Q9HBI0), inactive: 0; for PLA2G4A (UniProt P47712), inactive: 0.
The value for ORC3L (UniProt Q9UBD5) was inactive: 0; that for ORC4L (UniProt O43929) was inactive: 0.
ORAI1 (UniProt Q96D31): the “dose-dependent thermal stabilisation call” value is inactive: 0.
With PDPR (UniProt Q8NCN5), the “dose-dependent thermal stabilisation call” value is inactive: 0.
For PBK (UniProt Q96KB5) the value was inactive: 0; for OXCT1 (UniProt P55809), inactive: 0; for PFTK1 (UniProt O94921), inactive: 0.
For PACSIN2 (UniProt Q9UNF0) the value was inactive: 0; for PAN3 (UniProt Q58A45), inactive: 0.
The value for PHC2 (UniProt Q8IXK0) was inactive: 0; that for PGK2 (UniProt P07205) was inactive: 0; that for PIGK (UniProt Q92643) was inactive: 0.
In the case of PAAF1 (UniProt Q9BRP4), the “dose-dependent thermal stabilisation call” value was inactive: 0.
With PELP1 (UniProt Q8IZL8), the “dose-dependent thermal stabilisation call” value is inactive: 0.
Turning to PHKB (UniProt Q93100), the “dose-dependent thermal stabilisation call” value is inactive: 0.
For PCTK1 (UniProt Q00536), the “dose-dependent thermal stabilisation call” value is inactive: 0.
For PARP4 (UniProt Q9UKK3) the value was inactive: 0; for PAXIP1 (UniProt Q6ZW49), inactive: 0.
With PLAUR (UniProt Q03405), the “dose-dependent thermal stabilisation call” value was inactive: 0.
The value for OTUD5 (UniProt Q96G74) was inactive: 0; that for PDZD8 (UniProt Q8NEN9) was inactive: 0; that for PIR (UniProt O00625) was inactive: 0.
The value for PACS1 (UniProt Q6VY07) was inactive: 0.
The value for OSBPL1A (UniProt Q9BXW6) was inactive: 0; that for PFDN2 (UniProt Q9UHV9) was inactive: 0.

The values are drawn from the supplement of paper PMC7666118.
